Measurements published in patent US20230038761.

Protein sequences, listed by entry. Tags and fused reporters are not part of them.
UniProt A0A2K5X4G5, entry or part of it: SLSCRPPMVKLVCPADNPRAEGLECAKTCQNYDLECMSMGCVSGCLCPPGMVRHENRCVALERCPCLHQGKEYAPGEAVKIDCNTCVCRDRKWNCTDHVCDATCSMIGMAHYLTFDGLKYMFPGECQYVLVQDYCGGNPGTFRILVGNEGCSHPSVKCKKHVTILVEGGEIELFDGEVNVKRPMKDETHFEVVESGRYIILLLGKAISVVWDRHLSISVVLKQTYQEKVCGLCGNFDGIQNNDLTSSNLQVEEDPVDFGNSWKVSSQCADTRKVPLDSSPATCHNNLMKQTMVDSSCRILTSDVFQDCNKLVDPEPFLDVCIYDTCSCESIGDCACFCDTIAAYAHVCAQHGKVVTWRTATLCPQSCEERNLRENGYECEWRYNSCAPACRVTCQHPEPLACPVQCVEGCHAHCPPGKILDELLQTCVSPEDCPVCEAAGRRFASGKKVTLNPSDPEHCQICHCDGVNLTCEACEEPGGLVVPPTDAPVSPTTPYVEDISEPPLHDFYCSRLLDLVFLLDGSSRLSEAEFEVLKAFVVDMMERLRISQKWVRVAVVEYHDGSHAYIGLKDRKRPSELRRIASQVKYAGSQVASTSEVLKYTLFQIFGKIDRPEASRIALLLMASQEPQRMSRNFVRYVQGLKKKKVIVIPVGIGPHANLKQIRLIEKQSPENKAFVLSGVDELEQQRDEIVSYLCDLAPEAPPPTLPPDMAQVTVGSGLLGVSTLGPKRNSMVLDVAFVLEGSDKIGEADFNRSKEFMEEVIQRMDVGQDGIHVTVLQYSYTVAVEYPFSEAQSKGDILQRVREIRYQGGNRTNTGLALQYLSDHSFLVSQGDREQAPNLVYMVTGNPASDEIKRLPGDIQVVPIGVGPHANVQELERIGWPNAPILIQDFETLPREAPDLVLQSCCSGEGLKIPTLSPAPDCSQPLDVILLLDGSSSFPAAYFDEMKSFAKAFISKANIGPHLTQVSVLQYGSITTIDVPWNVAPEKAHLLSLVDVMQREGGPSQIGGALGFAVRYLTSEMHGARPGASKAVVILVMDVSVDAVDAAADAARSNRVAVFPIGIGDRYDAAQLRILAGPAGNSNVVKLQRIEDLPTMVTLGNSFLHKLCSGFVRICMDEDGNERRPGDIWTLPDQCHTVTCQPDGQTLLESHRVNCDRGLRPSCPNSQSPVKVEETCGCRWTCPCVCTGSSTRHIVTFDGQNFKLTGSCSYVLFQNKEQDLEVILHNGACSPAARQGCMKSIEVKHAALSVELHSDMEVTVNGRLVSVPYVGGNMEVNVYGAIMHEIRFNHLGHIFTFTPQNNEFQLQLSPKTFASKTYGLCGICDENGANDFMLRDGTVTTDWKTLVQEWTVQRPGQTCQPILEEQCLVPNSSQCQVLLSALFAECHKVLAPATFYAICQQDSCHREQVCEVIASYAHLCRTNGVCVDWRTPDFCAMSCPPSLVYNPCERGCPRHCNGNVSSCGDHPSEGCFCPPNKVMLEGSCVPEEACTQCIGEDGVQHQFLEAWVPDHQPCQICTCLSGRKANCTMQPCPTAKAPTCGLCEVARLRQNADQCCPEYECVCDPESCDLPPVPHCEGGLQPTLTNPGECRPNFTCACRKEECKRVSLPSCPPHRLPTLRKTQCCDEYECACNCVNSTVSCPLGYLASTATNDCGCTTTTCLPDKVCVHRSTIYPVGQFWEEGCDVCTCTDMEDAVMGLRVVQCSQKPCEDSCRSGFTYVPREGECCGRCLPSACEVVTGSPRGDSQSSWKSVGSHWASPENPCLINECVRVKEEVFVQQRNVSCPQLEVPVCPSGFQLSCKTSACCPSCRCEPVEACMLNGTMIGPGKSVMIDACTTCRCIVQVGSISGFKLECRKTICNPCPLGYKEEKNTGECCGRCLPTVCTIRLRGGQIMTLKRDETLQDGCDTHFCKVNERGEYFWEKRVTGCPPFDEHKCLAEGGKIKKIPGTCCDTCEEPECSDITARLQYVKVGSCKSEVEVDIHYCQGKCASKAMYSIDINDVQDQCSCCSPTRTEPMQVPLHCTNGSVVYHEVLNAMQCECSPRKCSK

How the values were obtained:
[1] = molecular target: von Willebrand factor (VWF) in citrated plasma / whole blood (Homo sapiens) (UniProt P04275); assay: inhibition of the protein; conditions: all residues 2'-OMe in both strands, 3' idT on both strands, protein details: endogenous plasma VWF, dose not given here
[2] = molecular target: von Willebrand factor (VWF) in plasma (Macaca fascicularis) (UniProt A0A2K5X4G5); assay: inhibition of the protein; conditions: in vivo, protein in an extract, protein details: endogenous cynomolgus monkey plasma VWF

GCCAGGGACCUAAGACACAUGUCCCUGGC / ACAUGUGUCUUAGGUCCCUGGCT [BT100/BT101 duplex]
functional effect of the aptamer ([1]; BT100 5' NH2, BT101 reverses BT100 inhibition completely at 1:1, PFA CADP-CT, protein in an …, variant of BT100): not active

GCCAGGGACCUAAGACACAUGUCCCUGGC / ACAUGUGUCUUAGGUCCCUGGCT [BT200/BT101 duplex]
functional effect of the aptamer ([2]; all residues 2'-OMe in both strands, BT200 5' PEG40K-NH, 3' idT on both strands, VWF activity returned to baseline within 5 min of i.v. BT101 (1, 3 or 10 mg/kg), variant of BT200): not active | functional effect of the aptamer ([1]; BT200 5' PEG40K-NH, REAADS VWF:Act, complete reversal of inhibition at 1:1 BT101, no further increase at 2:1, protein in an extract, variant of BT200): not active

GCCAGGGACCUAAGACACAUGUCCCUGGC [BT200]
functional effect of the aptamer ([2]; all residues 2'-OMe, 5' PEG40K-NH, 3' idT (final t of SEQ 6), 24 h after 0.6 mg/kg s.c. BT200, baseline 137.4%, REAADS assay): active

No signal at the amounts used counts as a negative.
